# Results published in the supplement of paper PMC8728848.
# The list shows a part of the results.
# Experiments:
# Test in all cases: glycan array binding signal (z-score within array); higher = stronger binding
# Settings in all cases: glycan notation: IUPAC condensed, linker removed
# [1] = molecular target: Neu5Ac(a2-3)Gal(b1-3)]Neu5Ac(a2-3)Gal(b1-4)]GlcNAc
# Outline: (§1)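 The binding signal is a Z-score computed within each array. Data were drawn from 3228 arrays in the Consortium for Functional Glycomics database, restricted to those with a known protein sequence. Scores were averaged over arrays of the same protein sequence at different concentrations or buffers, and over linkers, and negative values can be taken as non-binding.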
# Neu5Ac(a2-3)Gal(b1-4)Glc = molecular target: Neu5Ac(a2-3)Gal(b1-4)Glc
# Outline: as §1
# [2] = molecular target: Neu5Ac(a2-3)Gal(b1-4)GlcNAc
# Outline: as §1
# [3] = molecular target: Neu5Ac(a2-3)Gal(b1-4)GlcNAc(b1-2)Man
# Outline: as §1
# [4] = molecular target: Neu5Ac(a2-3)Gal(b1-4)GlcNAc(b1-2)Man(a1-3)[GlcNAc(b1-4)][Neu5Ac(a2-3)Gal(b1-4)GlcNAc(b1-2)Man(a1-6)]Man(b1-4)GlcNAc(b1-4)GlcNAc
# Outline: as §1
# [5] = molecular target: Neu5Ac(a2-3)Gal(b1-4)GlcNAc(b1-2)Man(a1-3)[Neu5Ac(a2-3)Gal(b1-4)GlcNAc(b1-2)Man(a1-6)]Man(b1-4)GlcNAc(b1-4)GlcNAc
# Outline: as §1
# [6] = molecular target: Neu5Ac(a2-3)Gal(b1-4)GlcNAc(b1-2)Man(a1-3)[Neu5Ac(a2-3)Gal(b1-4)GlcNAc(b1-2)Man(a1-6)]Man(b1-4)GlcNAc(b1-4)[Fuc(a1-6)]GlcNAc
# Outline: as §1
# [7] = molecular target: Neu5Ac(a2-3)Gal(b1-4)GlcNAc(b1-2)Man(a1-3)[Neu5Ac(a2-6)Gal(b1-4)GlcNAc(b1-2)Man(a1-6)]Man(b1-4)GlcNAc(b1-4)GlcNAc
# Outline: as §1
# [8] = molecular target: Neu5Ac(a2-3)Gal(b1-4)GlcNAc(b1-2)[Neu5Ac(a2-3)Gal(b1-4)GlcNAc(b1-4)]Man(a1-3)[GlcNAc(b1-4)][Neu5Ac(a2-3)Gal(b1-4)GlcNAc(b1-2)[Neu5Ac(a2-3)Gal(b1-4)GlcNAc(b1-6)]Man(a1-6)]Man(b1-4)GlcNAc(b1-4)GlcNAc
# Outline: as §1
# [9] = molecular target: Neu5Ac(a2-3)Gal(b1-4)GlcNAc(b1-2)[Neu5Ac(a2-3)Gal(b1-4)GlcNAc(b1-4)]Man(a1-3)[GlcNAc(b1-4)][Neu5Ac(a2-3)Gal(b1-4)GlcNAc(b1-4)Man(a1-6)]Man(b1-4)GlcNAc(b1-4)GlcNAc
# Outline: as §1
# [10] = molecular target: Neu5Ac(a2-3)Gal(b1-4)GlcNAc(b1-2)[Neu5Ac(a2-3)Gal(b1-4)GlcNAc(b1-6)]Man(a1-6)[Neu5Ac(a2-3)Gal(b1-4)GlcNAc(b1-2)Man(a1-3)][GlcNAc(b1-4)]Man(b1-4)GlcNAc(b1-4)GlcNAc
# Outline: as §1
# [11] = molecular target: Neu5Ac(a2-3)Gal(b1-4)GlcNAc(b1-3)Gal
# Outline: as §1
# [12] = molecular target: Neu5Ac(a2-3)Gal(b1-4)GlcNAc(b1-3)Gal(b1-3)GlcNAc
# Outline: as §1
# [13] = molecular target: Neu5Ac(a2-3)Gal(b1-4)GlcNAc(b1-3)Gal(b1-4)GlcNAc
# Outline: as §1
# [14] = molecular target: Neu5Ac(a2-3)Gal(b1-4)GlcNAc(b1-3)Gal(b1-4)GlcNAc(b1-2)Man(a1-3)[Neu5Ac(a2-3)Gal(b1-4)GlcNAc(b1-3)Gal(b1-4)GlcNAc(b1-2)Man(a1-6)]Man(b1-4)GlcNAc(b1-4)GlcNAc
# Outline: as §1
# [15] = molecular target: Neu5Ac(a2-3)Gal(b1-4)GlcNAc(b1-3)Gal(b1-4)GlcNAc(b1-3)Gal(b1-4)GlcNAc
# Outline: as §1
# [16] = molecular target: Neu5Ac(a2-3)Gal(b1-4)GlcNAc(b1-3)Gal(b1-4)GlcNAc(b1-3)Gal(b1-4)GlcNAc(b1-2)Man(a1-3)[Neu5Ac(a2-3)Gal(b1-4)GlcNAc(b1-3)Gal(b1-4)GlcNAc(b1-3)Gal(b1-4)GlcNAc(b1-2)Man(a1-6)]GalNAc
# Outline: as §1
# [17] = molecular target: Neu5Ac(a2-3)Gal(b1-4)GlcNAc(b1-3)Gal(b1-4)GlcNAc(b1-3)GalNAc
# Outline: as §1
# [18] = molecular target: Neu5Ac(a2-3)Gal(b1-4)GlcNAc(b1-3)Gal(b1-4)GlcNAc(b1-3)[Neu5Ac(a2-3)Gal(b1-4)GlcNAc(b1-3)Gal(b1-4)GlcNAc(b1-6)]GalNAc
# Outline: as §1
# [19] = molecular target: Neu5Ac(a2-3)Gal(b1-4)GlcNAc(b1-3)Gal(b1-4)GlcNAc(b1-6)[Gal(b1-3)]GalNAc
# Outline: as §1
# [20] = molecular target: Neu5Ac(a2-3)Gal(b1-4)GlcNAc(b1-3)Gal(b1-4)[Fuc(a1-3)]GlcNAc
# Outline: as §1
# [21] = molecular target: Neu5Ac(a2-3)Gal(b1-4)GlcNAc(b1-3)GalNAc
# Outline: as §1
# [22] = molecular target: Neu5Ac(a2-3)Gal(b1-4)GlcNAc(b1-3)[Neu5Ac(a2-3)Gal(b1-4)GlcNAc(b1-6)]GalNAc
# Outline: as §1
# [23] = molecular target: Neu5Ac(a2-3)Gal(b1-4)GlcNAc(b1-6)GalNAc
# Outline: as §1
# [24] = molecular target: Neu5Ac(a2-3)Gal(b1-4)GlcNAc(b1-6)[Gal(b1-3)]GalNAc
# Outline: as §1
# [25] = molecular target: Neu5Ac(a2-3)Gal(b1-4)GlcNAc(b1-6)[Neu5Ac(a2-3)Gal(b1-3)]GalNAc
# Outline: as §1
# [26] = molecular target: Neu5Ac(a2-3)Gal(b1-4)GlcNAc6S
# Outline: as §1
# [27] = molecular target: Neu5Ac(a2-3)Gal(b1-4)[Fuc(a1-3)]GlcNAc
# Outline: as §1
# [28] = molecular target: Neu5Ac(a2-3)Gal(b1-4)[Fuc(a1-3)]GlcNAc(b1-2)Man
# Outline: as §1
# [29] = molecular target: Neu5Ac(a2-3)Gal(b1-4)[Fuc(a1-3)]GlcNAc(b1-3)Gal
# Outline: as §1
# [30] = molecular target: Neu5Ac(a2-3)Gal(b1-4)[Fuc(a1-3)]GlcNAc(b1-3)Gal(b1-4)GlcNAc
# Outline: as §1
# [31] = molecular target: Neu5Ac(a2-3)Gal(b1-4)[Fuc(a1-3)]GlcNAc(b1-3)Gal(b1-4)[Fuc(a1-3)]GlcNAc(b1-3)Gal(b1-4)[Fuc(a1-3)]GlcNAc
# Outline: as §1
# [32] = molecular target: Neu5Ac(a2-3)Gal(b1-4)[Fuc(a1-3)]GlcNAc(b1-3)GalNAc
# Outline: as §1
# [33] = molecular target: Neu5Ac(a2-3)Gal(b1-4)[Fuc(a1-3)]GlcNAc(b1-6)[Gal(b1-3)]GalNAc
# Outline: as §1
# [34] = molecular target: Neu5Ac(a2-3)Gal(b1-4)[Fuc(a1-3)]GlcNAc(b1-6)[Neu5Ac(a2-3)Gal(b1-3)]GalNAc
# Outline: as §1
# [35] = molecular target: Neu5Ac(a2-3)Gal(b1-4)[Fuc(a1-3)]GlcNAc6S
# Outline: as §1
# [36] = molecular target: Neu5Ac(a2-3)Gal6S(b1-4)GlcNAc
# Outline: as §1
# [37] = molecular target: Neu5Ac(a2-3)Gal6S(b1-4)[Fuc(a1-3)]GlcNAc
# Outline: as §1
binder,measurement,setting,value
SJCP1084 (Schistosoma japonicum) (protein) MRIINLVIISTALLLINLLQTKSQANGEDTKNGTPDDPGLTKSTELKVEVQALLKDKKTNMRVKWNENLLDNTKPEYHNLRDEACELLLQIVRSVVPLSQDDGECKDVTFTKYVVGTKDGAVNVKLTITFKDSVAINQKPMDLKLKLENDFKNLQSESTLKATKPTFTVKVEKRLIPISKPQTTPPTTAKNDASKENVGDIGGEDSTVPTAAPATAASANEEKDEGDKDNKDSQHPNVLTSNVNDRNLIIALVALMILAIGVALTAAVKQR,glycan array binding signal (z-score),[1],1.15
same,glycan array binding signal (z-score),Neu5Ac(a2-3)Gal(b1-4)Glc,-0.493
same,glycan array binding signal (z-score),[2],-0.092
same,glycan array binding signal (z-score),[3],0.272
same,glycan array binding signal (z-score),[4],0.34
same,glycan array binding signal (z-score),[5],0.105
same,glycan array binding signal (z-score),[6],0.047
same,glycan array binding signal (z-score),[7],-0.163
same,glycan array binding signal (z-score),[8],-0.667
same,glycan array binding signal (z-score),[9],-0.787
same,glycan array binding signal (z-score),[10],0.321
same,glycan array binding signal (z-score),[11],0.968
same,glycan array binding signal (z-score),[12],-0.757
same,glycan array binding signal (z-score),[13],0.873
same,glycan array binding signal (z-score),[14],-0.701
same,glycan array binding signal (z-score),[15],-0.199
same,glycan array binding signal (z-score),[16],0.289
same,glycan array binding signal (z-score),[17],0.065
same,glycan array binding signal (z-score),[18],-0.2
same,glycan array binding signal (z-score),[19],0.254
same,glycan array binding signal (z-score),[20],-0.263
same,glycan array binding signal (z-score),[21],-0.729
same,glycan array binding signal (z-score),[22],-0.378
same,glycan array binding signal (z-score),[23],-0.741
same,glycan array binding signal (z-score),[24],0.427
same,glycan array binding signal (z-score),[25],-1.15
same,glycan array binding signal (z-score),[26],0.4
same,glycan array binding signal (z-score),[27],-1.17
same,glycan array binding signal (z-score),[28],-0.338
same,glycan array binding signal (z-score),[29],0.594
same,glycan array binding signal (z-score),[30],0.127
same,glycan array binding signal (z-score),[31],0.379
same,glycan array binding signal (z-score),[32],1.42
same,glycan array binding signal (z-score),[33],-0.394
same,glycan array binding signal (z-score),[34],-0.511
same,glycan array binding signal (z-score),[35],-0.23
same,glycan array binding signal (z-score),[36],-0.608
same,glycan array binding signal (z-score),[37],-1.71

# In another format: entries from further up.
binder | measurement | setting | value
SJCP1084 (Schistosoma japonicum) (protein) MRIINLVIISTALLLINLLQTKSQANGEDTKNGTPDDPGLTKSTELKVEVQALLKDKKTNMRVKWNENLLDNTKPEYHNLRDEACELLLQIVRSVVPLSQDDGECKDVTFTKYVVGTKDGAVNVKLTITFKDSVAINQKPMDLKLKLENDFKNLQSESTLKATKPTFTVKVEKRLIPISKPQTTPPTTAKNDASKENVGDIGGEDSTVPTAAPATAASANEEKDEGDKDNKDSQHPNVLTSNVNDRNLIIALVALMILAIGVALTAAVKQR | glycan array binding signal (z-score) | [23] | -0.741
same | glycan array binding signal (z-score) | [24] | 0.427
